Results taken from the supplement of paper PMC6078165.
± gives the standard deviation of the averaged measurements. Values are relative to the signal before dosing, not to a vehicle control; the signal also falls without drug.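 Fibroblast labels name human fibroblasts: mostly primary ones from tissues such as uterus (C12385, HUF), lung (H6013), bone (Hs27A), adrenal (HADF) and skin (WS1), plus mammary HMF and breast cancer-associated Hs343T. The cancer cells are basal-like or mesenchymal-like triple-negative breast cancer lines. The paper calls a changed response a hit when it shifts by more than 3x the replicate standard deviation. The tissue of the other fibroblasts is not given here.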

System: BT20
Experiment: relative JC-1 red fluorescence (viability) vs pre-drug, coculture with fibroblast (fraction); higher = more viable cancer cells
Experimental: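 JC-1 labelled TNBC cells cocultured 1:1 (1,500 cells each) with CellTrace Violet stained primary or stromal fibroblasts in 384-well plates in FluoroBrite medium, treated with one of 42 anticancer drugs at 0.1, 1, 10 or 100 uM. JC-1 red fluorescence (mitochondrial integrity in cancer cells only) was read by plate reader every 8 h for 72 h. Values are normalised to each well's pre-drug value. The stock of one drug was tenfold lower, so its dose labels may be too high.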

C=C1C[C@@H]2[C@H](CC[C@]3(C)C(=O)CC[C@@H]23)[C@@]2(C)C=CC(=O)C=C12 [Exemestane]
relative JC-1 red fluorescence
Details | 8 h | 16 h | 24 h | 32 h | 40 h | 48 h | 56 h | 64 h | 72 h
0.1 µM, coculture fibroblast: C12385 | 0.962 ± 0.038 | 0.89 ± 0.067 | 0.809 ± 0.026 | 0.742 ± 0.017 | 0.6709 ± 0.0063 | 0.6394 ± 0.0023 | 0.6068 ± 0.003 | 0.579 ± 0.016 | 0.564 ± 0.018
0.1 µM, coculture fibroblast: H6013 | 0.9823 ± 0.0014 | 0.887 ± 0.024 | 0.888 ± 0.048 | 0.867 ± 0.054 | 0.845 ± 0.045 | 0.836 ± 0.037 | 0.847 ± 0.032 | 0.824 ± 0.029 | 0.816 ± 0.022
0.1 µM, coculture fibroblast: H6019 | 0.851 ± 0.013 | 0.76 ± 0.024 | 0.72 ± 0.045 | 0.65 ± 0.046 | 0.599 ± 0.056 | 0.581 ± 0.063 | 0.542 ± 0.07 | 0.511 ± 0.077 | 0.491 ± 0.074
0.1 µM, coculture fibroblast: H6076 | 0.963 ± 0.049 | 0.865 ± 0.038 | 0.79 ± 0.035 | 0.756 ± 0.018 | 0.726 ± 0.017 | 0.7 ± 0.01 | 0.684 ± 0.019 | 0.674 ± 0.021 | 0.663 ± 0.021
0.1 µM, coculture fibroblast: H6231 | 0.965 ± 0.038 | 0.88 ± 0.01 | 0.7589 ± 0.0063 | 0.7024 ± 0.0053 | 0.6663 ± 0.0049 | 0.624 ± 0.013 | 0.595 ± 0.016 | 0.571 ± 0.008 | 0.547 ± 0.0062
0.1 µM, coculture fibroblast: HADF | 0.732 ± 0.016 | 0.932 ± 0.056 | 0.878 ± 0.12 | 0.854 ± 0.13 | 0.82 ± 0.14 | 0.763 ± 0.15 | 0.742 ± 0.15 | 0.731 ± 0.15 | 0.697 ± 0.15
0.1 µM, coculture fibroblast: HCFa | 0.953 ± 0.03 | 0.859 ± 0.012 | 0.82 ± 0.014 | 0.775 ± 0.024 | 0.719 ± 0.016 | 0.685 ± 0.013 | 0.637 ± 0.027 | 0.607 ± 0.025 | 0.561 ± 0.026
0.1 µM, coculture fibroblast: HCPF | 0.847 ± 0.011 | 0.9157 ± 0.0056 | 0.8212 ± 0.00033 | 0.763 ± 0.023 | 0.716 ± 0.024 | 0.66 ± 0.034 | 0.609 ± 0.045 | 0.586 ± 0.05 | 0.549 ± 0.06
0.1 µM, coculture fibroblast: HHSteC | 0.904 ± 0.09 | 0.896 ± 0.082 | 0.896 ± 0.12 | 0.842 ± 0.17 | 0.802 ± 0.19 | 0.775 ± 0.18 | 0.744 ± 0.19 | 0.721 ± 0.18 | 0.679 ± 0.18
0.1 µM, coculture fibroblast: HMF | 0.787 ± 0.026 | 0.892 ± 0.014 | 0.782 ± 0.012 | 0.721 ± 0.025 | 0.665 ± 0.02 | 0.623 ± 0.024 | 0.583 ± 0.033 | 0.552 ± 0.026 | 0.52 ± 0.033
0.1 µM, coculture fibroblast: HPFa | 0.9358 ± 0.0073 | 0.846 ± 0.022 | 0.819 ± 0.021 | 0.731 ± 0.028 | 0.689 ± 0.031 | 0.632 ± 0.03 | 0.581 ± 0.04 | 0.545 ± 0.04 | 0.492 ± 0.033
0.1 µM, coculture fibroblast: HUF | 0.90662 ± 0.00015 | 0.793 ± 0.016 | 0.733 ± 0.012 | 0.639 ± 0.013 | 0.574 ± 0.014 | 0.522 ± 0.015 | 0.49 ± 0.018 | 0.461 ± 0.02 | 0.435 ± 0.024
0.1 µM, coculture fibroblast: Hs5 | 0.804 ± 0.048 | 0.899 ± 0.012 | 0.821 ± 0.03 | 0.775 ± 0.032 | 0.735 ± 0.048 | 0.705 ± 0.057 | 0.669 ± 0.061 | 0.634 ± 0.065 | 0.601 ± 0.064
0.1 µM, coculture fibroblast: Hs27A | 0.829 ± 0.06 | 0.819 ± 0.063 | 0.896 ± 0.034 | 0.876 ± 0.024 | 0.822 ± 0.016 | 0.8055 ± 0.008 | 0.78 ± 0.019 | 0.756 ± 0.015 | 0.699 ± 0.019
0.1 µM, coculture fibroblast: Hs343T | 0.912 ± 0.1 | 0.886 ± 0.07 | 0.771 ± 0.058 | 0.712 ± 0.052 | 0.657 ± 0.037 | 0.606 ± 0.026 | 0.546 ± 0.027 | 0.528 ± 0.027 | 0.494 ± 0.027
0.1 µM, coculture fibroblast: WS1 | 0.891 ± 0.0099 | 0.7992 ± 0.0022 | 0.759 ± 0.013 | 0.6914 ± 0.0047 | 0.632 ± 0.0075 | 0.603 ± 0.007 | 0.5794 ± 0.0046 | 0.5466 ± 0.0019 | 0.531 ± 0.006
1 µM, coculture fibroblast: C12385 | 0.904 ± 0.03 | 0.83 ± 0.034 | 0.782 ± 0.051 | 0.719 ± 0.053 | 0.652 ± 0.049 | 0.62 ± 0.056 | 0.58 ± 0.062 | 0.562 ± 0.068 | 0.544 ± 0.071
1 µM, coculture fibroblast: H6013 | 0.9453 ± 0.0053 | 0.875 ± 0.022 | 0.819 ± 0.026 | 0.794 ± 0.025 | 0.744 ± 0.024 | 0.731 ± 0.025 | 0.718 ± 0.045 | 0.692 ± 0.047 | 0.668 ± 0.054
1 µM, coculture fibroblast: H6019 | 0.878 ± 0.018 | 0.7885 ± 0.0075 | 0.772 ± 0.026 | 0.715 ± 0.035 | 0.667 ± 0.043 | 0.643 ± 0.046 | 0.605 ± 0.046 | 0.578 ± 0.061 | 0.551 ± 0.059
1 µM, coculture fibroblast: H6076 | 0.781 ± 0.065 | 0.909 ± 0.018 | 0.814 ± 0.012 | 0.77 ± 0.03 | 0.734 ± 0.028 | 0.715 ± 0.025 | 0.695 ± 0.016 | 0.687 ± 0.017 | 0.659 ± 0.017
1 µM, coculture fibroblast: H6231 | 0.888 ± 0.01 | 0.93 ± 0.052 | 0.811 ± 0.06 | 0.74 ± 0.045 | 0.683 ± 0.029 | 0.627 ± 0.024 | 0.586 ± 0.018 | 0.563 ± 0.012 | 0.533 ± 0.0086
1 µM, coculture fibroblast: HADF | 0.852 ± 0.19 | 0.862 ± 0.011 | 0.817 ± 0.027 | 0.774 ± 0.016 | 0.737 ± 0.035 | 0.703 ± 0.032 | 0.686 ± 0.044 | 0.673 ± 0.056 | 0.645 ± 0.052
1 µM, coculture fibroblast: HCFa | 0.803 ± 0.14 | 0.877 ± 0.041 | 0.759 ± 0.081 | 0.881 ± 0.16 | 0.836 ± 0.15 | 0.8 ± 0.14 | 0.768 ± 0.12 | 0.75 ± 0.14 | 0.721 ± 0.14
1 µM, coculture fibroblast: HCPF | 0.814 ± 0.13 | 0.86983 ± 3.6e-05 | 0.805 ± 0.017 | 0.749 ± 0.013 | 0.69453 ± 0.00048 | 0.648 ± 0.013 | 0.608 ± 0.011 | 0.583 ± 0.013 | 0.547 ± 0.011
1 µM, coculture fibroblast: HHSteC | 0.909 ± 0.026 | 0.884 ± 0.088 | 0.886 ± 0.12 | 0.825 ± 0.15 | 0.789 ± 0.19 | 0.77 ± 0.21 | 0.755 ± 0.22 | 0.731 ± 0.24 | 0.693 ± 0.24
1 µM, coculture fibroblast: HMF | 0.837 ± 0.0096 | 0.8689 ± 0.00087 | 0.787 ± 0.04 | 0.733 ± 0.059 | 0.682 ± 0.062 | 0.638 ± 0.069 | 0.59 ± 0.066 | 0.566 ± 0.069 | 0.535 ± 0.062
1 µM, coculture fibroblast: HPFa | 0.911 ± 0.022 | 0.844 ± 0.045 | 0.831 ± 0.067 | 0.739 ± 0.067 | 0.699 ± 0.075 | 0.647 ± 0.068 | 0.614 ± 0.056 | 0.576 ± 0.061 | 0.511 ± 0.047
1 µM, coculture fibroblast: HUF | 0.922 ± 0.016 | 0.833 ± 0.047 | 0.83 ± 0.11 | 0.786 ± 0.15 | 0.755 ± 0.2 | 0.727 ± 0.21 | 0.707 ± 0.23 | 0.681 ± 0.23 | 0.652 ± 0.21
1 µM, coculture fibroblast: Hs5 | 0.861 ± 0.15 | 0.8961 ± 0.00097 | 0.8306 ± 0.0043 | 0.7775 ± 0.0018 | 0.7406 ± 0.0048 | 0.7027 ± 0.006 | 0.66995 ± 0.00066 | 0.6439 ± 0.0039 | 0.613 ± 0.0026
1 µM, coculture fibroblast: Hs27A | 0.86 ± 0.057 | 0.846 ± 0.14 | 0.966 ± 0.044 | 0.972 ± 0.021 | 0.9609 ± 0.0073 | 0.959 ± 0.019 | 0.947 ± 0.03 | 0.925 ± 0.039 | 0.865 ± 0.041
1 µM, coculture fibroblast: Hs343T | 0.936 ± 0.087 | 0.864 ± 0.036 | 0.7872 ± 0.0019 | 0.7138 ± 0.0045 | 0.6688 ± 0.0066 | 0.616 ± 0.012 | 0.577 ± 0.025 | 0.557 ± 0.022 | 0.529 ± 0.028
1 µM, coculture fibroblast: WS1 | 0.8584 ± 0.0026 | 0.749 ± 0.019 | 0.712 ± 0.009 | 0.652 ± 0.039 | 0.612 ± 0.056 | 0.599 ± 0.063 | 0.567 ± 0.071 | 0.548 ± 0.081 | 0.531 ± 0.081
